Laboratory results as given in patent US20030109546A1, “Treatment of psychotic disorders comprising co-therapy with anticonvulsant derivatives and atypical antipsychotics” (priority 2001, published 2003).
For at least one compound, name, drawing or mass did not settle the structure.

System: schizophrenia
Test: Example 3 case study: augmentation of clozapine treatment
Type: in vivo, human
Conditions: standard doses added to 100 mg clozapine
Description: The patient was a morbidly obese person, who was first hospitalized in 1966 for psychotic symptoms, leading to a psychiatric diagnosis of schizophrenia. Their primary symptoms consisted of a set of strange and elaborate ideas about transmitting their thoughts to others, thoughts that they had invented “invisible steel” which was being used by the CIA and aliens, and a high degree of suspiciousness about the discriminatory intent of their clergyman and the local police. They denied any overt hallucinations, although they acknowledged “weird noises” associated with aliens attempting to contact them. At initial hospitalization, the patient was also profoundly confused and disorganized in their thought processes. Over the next two decades they were hospitalized four more times with essentially this same clinical picture, eventually being admitted in 1989 to a state hospital for long-term treatment where they remain to this day.
During their five hospitalizations the patient was treated with a variety of anti-psychotic medications, often in various combinations and dosages. In 1994 they were characterized as being treatment refractory according to the Kane criteria and enrolled in an NIMH sponsored study of three different doses of clozapine. As a participant in this study the patient received 100, 300, 600 mg, each for a 3-month period. […]

Cc1cc2c(s1)Nc1ccccc1N=C2N1CCN(C)CC1 [olanzapine, 2-methyl-4-(4-methyl-1-piperazinyl)-10H-thieno[2,3-b]benzodiazepine]
effect when added to clozapine treatment: little effect
